Experimental data as given in paper PMC8411934.
These are yes or no findings as the source states them, for the method shown.

Chains of the proteins cited; added tags and fusions are not shown. Residues count along the entry.
UniProt Q56952, residues 32-311: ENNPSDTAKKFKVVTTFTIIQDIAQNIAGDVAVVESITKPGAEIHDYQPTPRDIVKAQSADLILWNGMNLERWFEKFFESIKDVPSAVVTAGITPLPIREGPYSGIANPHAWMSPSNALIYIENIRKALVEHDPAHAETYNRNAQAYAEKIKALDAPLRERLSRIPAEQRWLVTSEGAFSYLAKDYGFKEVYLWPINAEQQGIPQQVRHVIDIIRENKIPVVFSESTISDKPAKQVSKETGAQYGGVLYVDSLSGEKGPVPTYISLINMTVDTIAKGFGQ

Biological target: YfeA-His10 (Yersinia pestis substrate-binding protein YfeA) (Yersinia pestis) (UniProt Q56952)
Assay: SEC; both purified

Question: For “YfeA-His10 (Yersinia pestis substrate-binding protein YfeA) (from UniProt Q56952)”, which binding is on record?
Answer: no binding (tested: 5 mg ml-1 YfeA)
